Test results from the supplement of paper PMC6411743.
± gives the standard deviation of the averaged measurements. The list shows a part of the results, in another mix than the full data. Small differences around the control level are noise.

Sequences of proteins named here, by UniProt entry; tags and fusion partners are left off. A change or cut given only in a name is not applied to a line headed by its entry.
UniProt Q9BQ52: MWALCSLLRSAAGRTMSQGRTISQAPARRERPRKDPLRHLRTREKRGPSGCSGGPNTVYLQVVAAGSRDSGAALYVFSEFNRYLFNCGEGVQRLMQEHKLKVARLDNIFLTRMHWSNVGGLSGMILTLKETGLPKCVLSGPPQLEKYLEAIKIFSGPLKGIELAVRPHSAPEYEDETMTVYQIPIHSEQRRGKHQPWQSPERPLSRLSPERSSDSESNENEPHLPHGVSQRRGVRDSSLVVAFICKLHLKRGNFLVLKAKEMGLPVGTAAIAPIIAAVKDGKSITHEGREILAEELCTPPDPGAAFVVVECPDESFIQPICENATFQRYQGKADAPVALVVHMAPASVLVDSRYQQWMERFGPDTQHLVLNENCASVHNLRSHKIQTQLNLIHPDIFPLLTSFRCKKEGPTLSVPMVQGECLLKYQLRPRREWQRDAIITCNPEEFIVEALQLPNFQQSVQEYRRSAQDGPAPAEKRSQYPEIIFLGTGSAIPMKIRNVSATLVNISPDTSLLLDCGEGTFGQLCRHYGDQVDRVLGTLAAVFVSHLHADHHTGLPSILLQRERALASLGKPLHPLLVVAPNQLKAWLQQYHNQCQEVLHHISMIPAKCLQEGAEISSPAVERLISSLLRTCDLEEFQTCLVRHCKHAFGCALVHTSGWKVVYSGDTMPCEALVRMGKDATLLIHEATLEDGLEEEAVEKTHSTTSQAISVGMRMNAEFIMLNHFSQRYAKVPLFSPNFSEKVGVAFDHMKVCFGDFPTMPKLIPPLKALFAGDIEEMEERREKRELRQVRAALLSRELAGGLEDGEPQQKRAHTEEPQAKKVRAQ
UniProt Q9BUH6, whole entry: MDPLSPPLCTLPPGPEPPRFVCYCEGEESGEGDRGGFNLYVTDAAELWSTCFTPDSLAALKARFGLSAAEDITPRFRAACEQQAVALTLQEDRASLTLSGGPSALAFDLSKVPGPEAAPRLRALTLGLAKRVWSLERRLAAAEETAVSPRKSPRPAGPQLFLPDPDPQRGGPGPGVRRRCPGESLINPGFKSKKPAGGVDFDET
UniProt Q9BSJ2, whole entry: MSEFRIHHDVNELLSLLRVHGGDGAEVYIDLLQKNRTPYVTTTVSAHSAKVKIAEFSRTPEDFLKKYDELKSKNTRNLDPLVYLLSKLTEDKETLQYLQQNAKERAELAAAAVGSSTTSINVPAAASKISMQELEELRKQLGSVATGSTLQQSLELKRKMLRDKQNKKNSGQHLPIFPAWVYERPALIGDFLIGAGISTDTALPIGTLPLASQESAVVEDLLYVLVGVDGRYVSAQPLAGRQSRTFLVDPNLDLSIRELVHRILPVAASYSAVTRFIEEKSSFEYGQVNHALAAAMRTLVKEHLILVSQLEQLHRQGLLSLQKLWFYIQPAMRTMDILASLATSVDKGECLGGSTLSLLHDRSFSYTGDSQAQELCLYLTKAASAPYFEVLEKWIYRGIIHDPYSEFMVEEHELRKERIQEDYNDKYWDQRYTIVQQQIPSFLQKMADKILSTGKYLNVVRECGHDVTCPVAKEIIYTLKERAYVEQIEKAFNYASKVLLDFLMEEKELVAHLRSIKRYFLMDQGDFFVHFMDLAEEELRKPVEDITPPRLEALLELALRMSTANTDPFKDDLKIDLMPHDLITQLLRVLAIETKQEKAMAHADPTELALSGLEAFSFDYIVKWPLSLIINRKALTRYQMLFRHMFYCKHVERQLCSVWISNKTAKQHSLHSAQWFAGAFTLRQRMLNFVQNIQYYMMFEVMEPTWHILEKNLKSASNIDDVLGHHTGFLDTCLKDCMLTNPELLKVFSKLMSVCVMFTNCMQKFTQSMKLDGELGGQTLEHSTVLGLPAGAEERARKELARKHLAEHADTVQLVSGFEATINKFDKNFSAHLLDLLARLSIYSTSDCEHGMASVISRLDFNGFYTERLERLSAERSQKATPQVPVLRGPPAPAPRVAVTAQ
UniProt Q9BRJ6: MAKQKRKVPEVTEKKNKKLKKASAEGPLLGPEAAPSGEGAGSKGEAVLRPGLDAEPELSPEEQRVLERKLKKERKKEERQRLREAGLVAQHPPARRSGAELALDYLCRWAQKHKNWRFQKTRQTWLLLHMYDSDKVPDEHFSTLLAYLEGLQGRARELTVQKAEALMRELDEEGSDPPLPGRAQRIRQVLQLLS
UniProt Q9BQ24: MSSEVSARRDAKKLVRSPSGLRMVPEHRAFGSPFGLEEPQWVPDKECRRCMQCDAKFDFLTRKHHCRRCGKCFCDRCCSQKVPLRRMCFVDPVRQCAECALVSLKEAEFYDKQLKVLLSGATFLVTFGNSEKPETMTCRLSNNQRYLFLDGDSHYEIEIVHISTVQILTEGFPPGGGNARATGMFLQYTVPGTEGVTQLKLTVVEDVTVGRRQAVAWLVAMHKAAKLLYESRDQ
UniProt Q9BW19: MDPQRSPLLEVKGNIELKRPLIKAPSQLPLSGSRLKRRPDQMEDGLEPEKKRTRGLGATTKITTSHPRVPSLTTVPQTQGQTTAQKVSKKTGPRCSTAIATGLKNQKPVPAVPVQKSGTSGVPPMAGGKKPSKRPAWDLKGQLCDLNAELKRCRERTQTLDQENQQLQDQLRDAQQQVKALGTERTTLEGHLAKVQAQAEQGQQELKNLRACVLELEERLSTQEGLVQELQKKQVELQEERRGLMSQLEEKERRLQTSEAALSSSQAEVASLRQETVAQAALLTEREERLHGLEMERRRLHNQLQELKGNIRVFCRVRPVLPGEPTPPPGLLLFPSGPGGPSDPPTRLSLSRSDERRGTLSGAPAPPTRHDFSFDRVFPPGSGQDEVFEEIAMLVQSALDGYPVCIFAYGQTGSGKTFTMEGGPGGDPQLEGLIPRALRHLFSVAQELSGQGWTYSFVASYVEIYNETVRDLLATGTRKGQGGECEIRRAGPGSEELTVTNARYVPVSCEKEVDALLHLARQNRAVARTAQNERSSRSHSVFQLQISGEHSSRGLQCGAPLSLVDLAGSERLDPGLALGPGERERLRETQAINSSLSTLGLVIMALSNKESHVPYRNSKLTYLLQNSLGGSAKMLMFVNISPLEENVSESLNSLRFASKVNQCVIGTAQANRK
UniProt Q9BXP2: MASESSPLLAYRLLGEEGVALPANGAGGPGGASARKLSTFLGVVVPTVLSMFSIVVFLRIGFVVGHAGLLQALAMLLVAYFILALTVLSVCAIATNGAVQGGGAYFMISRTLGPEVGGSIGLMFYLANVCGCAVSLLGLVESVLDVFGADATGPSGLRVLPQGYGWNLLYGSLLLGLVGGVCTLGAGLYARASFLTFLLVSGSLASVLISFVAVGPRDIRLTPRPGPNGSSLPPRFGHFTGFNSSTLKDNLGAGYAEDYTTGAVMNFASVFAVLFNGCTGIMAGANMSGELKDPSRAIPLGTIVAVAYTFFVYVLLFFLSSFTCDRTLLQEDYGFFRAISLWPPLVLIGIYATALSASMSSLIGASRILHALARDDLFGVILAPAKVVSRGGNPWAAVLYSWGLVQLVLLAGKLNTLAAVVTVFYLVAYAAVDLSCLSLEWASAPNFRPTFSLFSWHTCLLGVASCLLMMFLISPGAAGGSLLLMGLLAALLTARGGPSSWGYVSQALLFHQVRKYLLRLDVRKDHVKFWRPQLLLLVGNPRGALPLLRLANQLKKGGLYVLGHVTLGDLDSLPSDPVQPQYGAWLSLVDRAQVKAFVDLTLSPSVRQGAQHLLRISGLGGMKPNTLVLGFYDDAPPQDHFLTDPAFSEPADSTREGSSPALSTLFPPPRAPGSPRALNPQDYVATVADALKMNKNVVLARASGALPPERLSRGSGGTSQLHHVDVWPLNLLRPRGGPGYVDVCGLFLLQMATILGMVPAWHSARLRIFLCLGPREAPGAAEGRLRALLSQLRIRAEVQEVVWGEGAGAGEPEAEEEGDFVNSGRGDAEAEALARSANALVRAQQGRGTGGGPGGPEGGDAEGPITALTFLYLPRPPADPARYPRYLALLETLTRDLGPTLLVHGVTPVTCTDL
UniProt Q99471, whole entry: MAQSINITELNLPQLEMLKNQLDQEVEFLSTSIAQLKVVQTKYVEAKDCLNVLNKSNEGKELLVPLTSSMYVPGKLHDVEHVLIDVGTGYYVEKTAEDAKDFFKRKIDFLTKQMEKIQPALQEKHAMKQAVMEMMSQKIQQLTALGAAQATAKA
UniProt Q9BSH5: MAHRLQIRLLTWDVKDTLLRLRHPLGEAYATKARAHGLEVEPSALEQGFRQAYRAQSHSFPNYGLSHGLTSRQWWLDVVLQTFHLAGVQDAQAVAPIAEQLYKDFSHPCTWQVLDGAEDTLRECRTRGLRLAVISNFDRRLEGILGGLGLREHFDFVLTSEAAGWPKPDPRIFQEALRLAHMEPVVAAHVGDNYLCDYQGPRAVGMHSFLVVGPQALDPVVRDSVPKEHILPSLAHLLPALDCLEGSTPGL
UniProt Q99442: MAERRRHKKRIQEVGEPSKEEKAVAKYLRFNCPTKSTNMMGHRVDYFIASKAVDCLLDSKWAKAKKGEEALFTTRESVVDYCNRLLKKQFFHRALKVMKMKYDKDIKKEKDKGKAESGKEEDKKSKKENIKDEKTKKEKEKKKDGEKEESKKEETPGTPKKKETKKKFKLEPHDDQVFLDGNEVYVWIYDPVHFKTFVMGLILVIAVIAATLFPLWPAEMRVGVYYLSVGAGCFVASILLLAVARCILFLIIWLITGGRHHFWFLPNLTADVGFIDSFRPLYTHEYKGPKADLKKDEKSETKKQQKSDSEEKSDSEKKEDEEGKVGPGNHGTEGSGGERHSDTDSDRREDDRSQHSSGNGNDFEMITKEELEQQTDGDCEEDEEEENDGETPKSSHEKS
UniProt Q99497, whole entry: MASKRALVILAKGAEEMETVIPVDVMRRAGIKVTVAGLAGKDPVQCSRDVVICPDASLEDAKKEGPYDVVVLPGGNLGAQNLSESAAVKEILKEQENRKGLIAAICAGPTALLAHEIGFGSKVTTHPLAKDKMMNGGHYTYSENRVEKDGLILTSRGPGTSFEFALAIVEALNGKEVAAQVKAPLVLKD
UniProt Q9BV44: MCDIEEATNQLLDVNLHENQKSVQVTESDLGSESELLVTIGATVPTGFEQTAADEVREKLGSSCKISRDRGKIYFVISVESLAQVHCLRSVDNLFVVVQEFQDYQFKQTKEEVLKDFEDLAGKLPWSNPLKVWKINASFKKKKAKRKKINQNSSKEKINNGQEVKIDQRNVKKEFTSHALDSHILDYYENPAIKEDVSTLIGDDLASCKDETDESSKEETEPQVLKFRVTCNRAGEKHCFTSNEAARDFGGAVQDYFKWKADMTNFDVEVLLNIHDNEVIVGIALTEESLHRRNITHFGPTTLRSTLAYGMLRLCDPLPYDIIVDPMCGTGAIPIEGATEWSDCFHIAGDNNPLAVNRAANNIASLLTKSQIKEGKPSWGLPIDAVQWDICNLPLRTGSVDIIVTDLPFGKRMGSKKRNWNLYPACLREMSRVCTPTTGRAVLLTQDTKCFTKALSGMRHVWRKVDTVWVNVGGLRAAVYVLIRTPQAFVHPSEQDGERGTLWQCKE
UniProt Q9BR61: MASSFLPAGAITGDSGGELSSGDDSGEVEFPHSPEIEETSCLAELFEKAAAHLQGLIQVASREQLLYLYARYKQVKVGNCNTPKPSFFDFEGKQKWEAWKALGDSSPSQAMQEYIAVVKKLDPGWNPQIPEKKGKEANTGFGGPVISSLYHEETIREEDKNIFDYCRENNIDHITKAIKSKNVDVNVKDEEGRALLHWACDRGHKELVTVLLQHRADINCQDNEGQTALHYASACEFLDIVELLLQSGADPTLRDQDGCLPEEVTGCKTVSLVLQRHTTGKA
UniProt Q9BV57: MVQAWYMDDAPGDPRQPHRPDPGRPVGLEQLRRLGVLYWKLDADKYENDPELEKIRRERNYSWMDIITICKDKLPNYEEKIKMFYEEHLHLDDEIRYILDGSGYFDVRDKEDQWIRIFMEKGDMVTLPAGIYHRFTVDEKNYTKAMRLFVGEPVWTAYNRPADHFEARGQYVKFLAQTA
UniProt Q9BZL1: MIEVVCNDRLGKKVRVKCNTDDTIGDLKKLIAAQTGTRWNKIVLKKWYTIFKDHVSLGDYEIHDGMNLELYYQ
UniProt Q9BWJ5: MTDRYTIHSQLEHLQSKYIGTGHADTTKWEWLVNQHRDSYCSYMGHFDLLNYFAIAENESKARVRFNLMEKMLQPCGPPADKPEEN
UniProt Q9BPZ7, whole entry: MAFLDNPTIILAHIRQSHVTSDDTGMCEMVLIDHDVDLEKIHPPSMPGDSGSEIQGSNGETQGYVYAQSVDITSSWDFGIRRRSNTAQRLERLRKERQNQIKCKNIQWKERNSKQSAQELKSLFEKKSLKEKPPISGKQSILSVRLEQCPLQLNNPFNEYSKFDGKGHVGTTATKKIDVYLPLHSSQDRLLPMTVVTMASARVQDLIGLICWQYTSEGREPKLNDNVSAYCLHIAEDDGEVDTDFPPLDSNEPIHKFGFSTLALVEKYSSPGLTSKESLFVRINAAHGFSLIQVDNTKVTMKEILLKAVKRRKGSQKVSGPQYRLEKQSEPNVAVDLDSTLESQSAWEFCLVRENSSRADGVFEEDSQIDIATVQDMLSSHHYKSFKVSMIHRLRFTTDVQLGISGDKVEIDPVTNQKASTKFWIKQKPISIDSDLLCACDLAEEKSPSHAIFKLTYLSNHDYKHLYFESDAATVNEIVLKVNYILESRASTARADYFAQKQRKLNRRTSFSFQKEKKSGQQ

Compound: Nc1ncnc2c1ncn2[C@@H]1O[C@H](COP(=O)(O)OP(=O)(O)OP(=O)(O)O)[C@@H](O)[C@H]1O [adenosine triphosphate]
Assay: NP40-soluble protein abundance relative to vehicle (solubility fold change) (ratio); higher = more soluble protein in presence of ATP
Settings: concentration: 0.1mM
Outline: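 Each value is a fold change relative to the detergent-processed vehicle, calculated per replicate from vsn-normalised intensities. Jurkat crude lysate received eight concentrations (0.1 to 10 mM) for 10 min at room temperature and 3 min at 37 °C, then was solubilised in 0.8% NP40 with benzonase (60 min, 4 °C). The ultracentrifuged supernatant was TMT-labelled and run by LC-MS/MS in three independent experiments.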

Target	NP40-soluble protein abundance
UniProt Q99460 and related entries	0.959 ± 0.047
UniProt Q99828 and related entries	1.03 ± 0.095
UniProt Q9BQ52 and related entries	1.02 ± 0.028
UniProt Q9BUH6	1.01 ± 0.018
UniProt Q9BSJ2 and related entries	1.04 ± 0.14
C7orf50 (UniProt Q9BRJ6)	1.07 ± 0.095
UniProt Q9BQ24 and related entries	1.1 ± 0.092
KIFC1 (UniProt Q9BW19)	1.06 ± 0.012
SLC12A9 (UniProt Q9BXP2)	1.01 ± 0.093

Same assay, conditions: concentration: 0.5mM

Target	NP40-soluble protein abundance
BUD13 (UniProt Q9BRD0)	1.05 ± 0.07
UniProt Q99471 and related entries	0.894 ± 0.16
TSNAX (UniProt Q99598)	0.986 ± 0.025
UniProt Q9BSF4	0.924 ± 0.13
UniProt Q99767-2	0.848 ± 0.092
HDHD3 (UniProt Q9BSH5)	0.9989 ± 0.0078
RBM4B (UniProt Q9BQ04)	0.944 ± 0.014
SEC62 (UniProt Q99442)	0.978 ± 0.047
COPS4 (UniProt Q9BT78)	0.959 ± 0.04
UBXN6 (UniProt Q9BZV1)	0.957 ± 0.076
LIMD2 (UniProt Q9BT23)	1.02 ± 0.055
PARK7 (UniProt Q99497)	1 ± 0.05
THUMPD3 (UniProt Q9BV44)	1.02 ± 0.059
DNAJC7 (UniProt Q99615)	1 ± 0.039
C16orf70 (UniProt Q9BSU1)	0.986 ± 0.14
WDR77 (UniProt Q9BQA1)	1.06 ± 0.058
UniProt Q9BXW7 and related entries	1.01 ± 0.032
KATNAL1 (UniProt Q9BW62)	1.02 ± 0.089
UniProt Q9BQG0 and related entries	0.978 ± 0.087

Target	NP40-soluble protein abundance
DIDO1 (UniProt Q9BTC0)	1.12 ± 0.039
POP1 (UniProt Q99575)	1.02 ± 0.057
ACBD6 (UniProt Q9BR61)	0.929 ± 0.032
UniProt Q9BU61	0.952 ± 0.016
UniProt Q9BRR6 and related entries	1.02 ± 0.17
ADI1 (UniProt Q9BV57)	1 ± 0.1
UniProt Q9BZL1	1.06 ± 0.059
TBCB (UniProt Q99426)	0.994 ± 0.039
SF3B5 (UniProt Q9BWJ5)	0.984 ± 0.092
UniProt Q9BPZ7 and related entries	1.02 ± 0.035
UniProt Q99460 and related entries	0.952 ± 0.045
UniProt Q99828 and related entries	0.933 ± 0.096
UniProt Q9BQ52 and related entries	1.02 ± 0.024
UniProt Q9BUH6	1.01 ± 0.06
UniProt Q9BSJ2 and related entries	1.04 ± 0.026
C7orf50 (UniProt Q9BRJ6)	0.999 ± 0.04
UniProt Q9BQ24 and related entries	1.12 ± 0.033
KIFC1 (UniProt Q9BW19)	1.08 ± 0.047
SLC12A9 (UniProt Q9BXP2)	0.923 ± 0.047
